# Experimental data reported in patent US20190255086A1, “Compositions and Methods for Treating an Infection” (CMPD Licensing, LLC, priority 2015, published 2019).
# At least one compound was matched to its structure with a doubt left.
# How the values were obtained:
# Experiment in all cases: Expected efficacy of anti-bacterial agents against various bacteria (Tables 5 and 6)
# [1] = test system: Streptococcus agalactiae; details: Gram: pos
# [2] = test system: Peptostreptococcus; details: Gram: pos
# [3] = test system: Streptococcus pyogenes; details: Gram: pos
# [4] = test system: Bacteroides fragilis; details: Gram: anaer
# [5] = test system: Viridans group streptococci; details: Gram: pos
# [6] = test system: Chlamydia pneumoniae; details: Gram: n/a
# [7] = test system: Staphylococcus epidermidis; details: Gram: pos
# [8] = test system: Streptococcus pneumoniae; details: Gram: pos
# [9] = test system: Staphylococcus aureus (MSSA); details: Gram: pos
# [10] = test system: Corynebacterium urealyticum; details: Gram: pos
# [11] = test system: Pseudomonas aeruginosa; details: Gram: neg
# [12] = test system: Citrobacter diversus; details: Gram: neg
# [13] = test system: Haemophilus parainfluenzae; details: Gram: neg
# [14] = test system: Chlamydia trachomatis; details: Gram: n/a
# [15] = test system: Serratia marcescens; details: Gram: neg
# [16] = test system: Providencia rettgeri; details: Gram: neg
# [17] = test system: Klebsiella pneumoniae; details: Gram: neg
# [18] = test system: Providencia stuartii; details: Gram: neg
# [19] = test system: Proteus mirabilis; details: Gram: neg
# [20] = test system: Neisseria gonorrhoeae; details: Gram: neg
# [21] = test system: Morganella morganii; details: Gram: neg
# [22] = test system: Bartonella bacilliformis; details: Gram: neg
# [23] = test system: Vibrio cholerae; details: Gram: neg
# [24] = test system: Mycoplasma pneumoniae; details: Gram: n/a
# [25] = test system: Haemophilus influenzae; details: Gram: neg
# [26] = test system: Acinetobacter baumannii; details: Gram: neg
# [27] = test system: Shigella dysenteriae; details: Gram: neg
# [28] = test system: Campylobacter jejuni; details: Gram: neg
# [29] = test system: Enterobacter cloacae; details: Gram: neg
# [30] = test system: Neisseria meningitidis; details: Gram: neg
# [31] = test system: Proteus vulgaris; details: Gram: neg
# [32] = test system: Klebsiella oxytoca; details: Gram: neg
# [33] = test system: Klebsiella (Calymmatobacterium) granulomatis; details: Gram: neg
# [34] = test system: Haemophilus ducreyi; details: Gram: neg
# [35] = test system: Escherichia coli; details: Gram: neg
# [36] = test system: Acinetobacter lwoffii; details: Gram: neg
# [37] = test system: Enterococcus faecalis; details: Gram: pos
# [38] = test system: Moraxella catarrhalis; details: Gram: neg
# [39] = test system: Enterobacter aerogenes; details: Gram: neg
# [40] = test system: Acinetobacter calcoaceticus; details: Gram: neg
# [41] = test system: Enterobacter sakazakii; details: Gram: neg
# [42] = test system: Salmonella typhi; details: Gram: neg
# [43] = test system: Enterococcus faecium; details: Gram: pos
# [44] = test system: Methicillin resistant staph aureus (MRSA); details: Gram: pos
# [45] = test system: Citrobacter freundii; details: Gram: neg
# [46] = test system: Bordetella pertussis; details: Gram: neg
# [47] = test system: Pseudomonas fluorescens; details: Gram: neg
# [48] = test system: Corynebacterium jeikeium; details: Gram: pos
smiles,measurement,setting,value
CCC[C@@H]1C[C@@H](C(=O)N[C@@H]([C@H]2O[C@H](SC)[C@H](O)[C@@H](O)[C@H]2O)[C@H](C)Cl)N(C)C1 [Clindamycin],Efficacy of various antibiotic agents,[1],yes
same,Efficacy of various antibiotic agents,[2],yes
same,Efficacy of various antibiotic agents,[3],yes
same,Efficacy of various antibiotic agents,[4],yes
same,Efficacy of various antibiotic agents,[5],yes
same,Efficacy of various antibiotic agents,[6],±
same,Efficacy of various antibiotic agents,[7],yes
same,Efficacy of various antibiotic agents,[8],yes
same,Efficacy of various antibiotic agents,[9],yes
C[C@H]1c2cccc(O)c2C(=O)C2=C(O)[C@]3(O)C(=O)C(C(N)=O)=C(O)[C@@H](N(C)C)[C@@H]3[C@@H](O)[C@@H]21 [Doxycycline],Efficacy of various antibiotic agents,[10],±
same,Efficacy of various antibiotic agents,[11],no
same,Efficacy of various antibiotic agents,[1],±
same,Efficacy of various antibiotic agents,[12],no
same,Efficacy of various antibiotic agents,[13],yes
same,Efficacy of various antibiotic agents,[2],±
same,Efficacy of various antibiotic agents,[3],±
same,Efficacy of various antibiotic agents,[14],yes
same,Efficacy of various antibiotic agents,[15],no
same,Efficacy of various antibiotic agents,[16],no
same,Efficacy of various antibiotic agents,[17],±
same,Efficacy of various antibiotic agents,[18],no
same,Efficacy of various antibiotic agents,[19],no
same,Efficacy of various antibiotic agents,[20],±
same,Efficacy of various antibiotic agents,[21],no
same,Efficacy of various antibiotic agents,[22],yes
same,Efficacy of various antibiotic agents,[23],yes
same,Efficacy of various antibiotic agents,[4],±
same,Efficacy of various antibiotic agents,[24],±
same,Efficacy of various antibiotic agents,[25],yes
same,Efficacy of various antibiotic agents,[26],no
same,Efficacy of various antibiotic agents,[27],±
same,Efficacy of various antibiotic agents,[28],yes
same,Efficacy of various antibiotic agents,[5],±
same,Efficacy of various antibiotic agents,[29],±
same,Efficacy of various antibiotic agents,[30],yes
same,Efficacy of various antibiotic agents,[31],no
same,Efficacy of various antibiotic agents,[32],±
same,Efficacy of various antibiotic agents,[33],yes
same,Efficacy of various antibiotic agents,[34],yes
same,Efficacy of various antibiotic agents,[35],±
same,Efficacy of various antibiotic agents,[36],no
same,Efficacy of various antibiotic agents,[37],no
same,Efficacy of various antibiotic agents,[6],yes
same,Efficacy of various antibiotic agents,[38],yes
same,Efficacy of various antibiotic agents,[39],±
same,Efficacy of various antibiotic agents,[7],yes
same,Efficacy of various antibiotic agents,[40],±
same,Efficacy of various antibiotic agents,[8],yes
same,Efficacy of various antibiotic agents,[41],±
same,Efficacy of various antibiotic agents,[42],±
same,Efficacy of various antibiotic agents,[9],±
same,Efficacy of various antibiotic agents,[43],no
same,Efficacy of various antibiotic agents,[44],±
same,Efficacy of various antibiotic agents,[45],no
C[C@H]1COc2c(N3CCN(C)CC3)c(F)cc3c(=O)c(C(=O)O)cn1c23 [Levofloxacin],Efficacy of various antibiotic agents,[46],±
same,Efficacy of various antibiotic agents,[10],±
same,Efficacy of various antibiotic agents,[11],yes
same,Efficacy of various antibiotic agents,[1],yes
same,Efficacy of various antibiotic agents,[12],yes
same,Efficacy of various antibiotic agents,[13],yes
same,Efficacy of various antibiotic agents,[2],±
same,Efficacy of various antibiotic agents,[3],yes
same,Efficacy of various antibiotic agents,[15],yes
same,Efficacy of various antibiotic agents,[16],yes
same,Efficacy of various antibiotic agents,[17],yes
same,Efficacy of various antibiotic agents,[18],yes
same,Efficacy of various antibiotic agents,[19],yes
same,Efficacy of various antibiotic agents,[20],yes
same,Efficacy of various antibiotic agents,[47],yes
same,Efficacy of various antibiotic agents,[21],yes
same,Efficacy of various antibiotic agents,[22],yes
same,Efficacy of various antibiotic agents,[23],yes
same,Efficacy of various antibiotic agents,[4],no
same,Efficacy of various antibiotic agents,[24],yes
same,Efficacy of various antibiotic agents,[25],yes
same,Efficacy of various antibiotic agents,[26],±
same,Efficacy of various antibiotic agents,[27],yes
same,Efficacy of various antibiotic agents,[28],yes
same,Efficacy of various antibiotic agents,[48],no
same,Efficacy of various antibiotic agents,[5],yes
same,Efficacy of various antibiotic agents,[29],yes
same,Efficacy of various antibiotic agents,[30],yes
same,Efficacy of various antibiotic agents,[31],yes
same,Efficacy of various antibiotic agents,[32],yes
same,Efficacy of various antibiotic agents,[35],yes
same,Efficacy of various antibiotic agents,[36],±
same,Efficacy of various antibiotic agents,[37],yes
same,Efficacy of various antibiotic agents,[6],yes
same,Efficacy of various antibiotic agents,[38],yes
same,Efficacy of various antibiotic agents,[39],yes
same,Efficacy of various antibiotic agents,[7],yes
same,Efficacy of various antibiotic agents,[40],±
same,Efficacy of various antibiotic agents,[8],yes
same,Efficacy of various antibiotic agents,[41],yes
same,Efficacy of various antibiotic agents,[42],yes
same,Efficacy of various antibiotic agents,[9],yes
same,Efficacy of various antibiotic agents,[43],no
same,Efficacy of various antibiotic agents,[44],no
same,Efficacy of various antibiotic agents,[45],yes
